Reference: patent US20140363434A1 (COMPLIX, published 2014)
Where a chain is given by its changes, count along the chain named. Results are given in words; binding and its absence hold for the method and conditions named. Some results given as binding are weak or reduced against the parent protein; the word gives no strength.

Chains of the proteins cited; added tags and fusions are not shown.
UniProt Q07820: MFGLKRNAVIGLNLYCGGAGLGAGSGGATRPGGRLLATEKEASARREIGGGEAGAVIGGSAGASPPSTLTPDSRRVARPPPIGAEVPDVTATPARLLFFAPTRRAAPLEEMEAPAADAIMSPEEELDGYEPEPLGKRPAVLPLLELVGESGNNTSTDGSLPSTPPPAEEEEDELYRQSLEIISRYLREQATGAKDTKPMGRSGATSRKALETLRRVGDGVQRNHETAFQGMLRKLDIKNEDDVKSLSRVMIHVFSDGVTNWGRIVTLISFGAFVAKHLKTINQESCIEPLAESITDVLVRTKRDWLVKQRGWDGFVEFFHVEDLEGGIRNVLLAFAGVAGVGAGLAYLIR

What was measured:
[1] = target: MCL-1 in MCL-1 transfected HEK cell lysate (Santa Cruz) (UniProt Q07820); assay: dot blot on spotted MCL-1 transfected HEK cell lysate; 1, 5 and 10 microM Alphabody; anti-His-HRP detection
[2] = target: MCL-1 in MCL-1 transfected HEK cell lysate (Santa Cruz) (UniProt Q07820); assay: dot blot on spotted MCL-1 transfected HEK cell lysate
[3] = target: MCL-1 in MCL-1 transfected HEK cell lysate (Santa Cruz) (UniProt Q07820); assay: dot blot: MCL-1 transfected HEK cell lysate spotted on nitrocellulose, incubated with Alphabody, detected with anti-His antibody-HRP

Measured: binding

B1: KLPVM-MCL1-AB1 (designed binder)
chain: KLPVMMSIEEIQKQIAAIQKQIAAIEKQIYAMTGGSGGGSGGGSGGGSGMSIEEITKQIAAIQLRIVGDQVQIYAMTGGSGGGSGGGSGGGSGGSIEEIQKSIAAIQKEIAAIQKQIYAMTP
binds: all assays above

B2: VPTLK-MCL1-AB1 (designed binder)
chain: B1 chain with K1V, L2P, P3T, V4L, M5K
binds: all assays above
